Measurements: patent US11065203B2, “Liposomal compositions and uses of same” (Technion Research & Development Foundation Limited, priority 2009, dated 2021)

B1: P04216 (protein, UniProt P04216 1-161, looked up)
chain: MNLAISIALLLTVLQVSRGQKVTSLTACLVDQSLRLDCRHENTSSSPIQYEFSLTRETKKHVLFGTVGVPEHTYRSRTNFTSKYNMKVLYLSAFTSKDEGTYTCALHHSGHSPPISSQNVTVLRDKLVKCEGISLLAQNTSWLLLLLLSLSLLQATDFMSL
modifications: full-length
B2: P35221 (protein, UniProt P35221 1-906, looked up)
chain: MTAVHAGNINFKWDPKSLEIRTLAVERLLEPLVTQVTTLVNTNSKGPSNKKRGRSKKAHVLAASVEQATENFLEKGDKIAKESQFLKEELVAAVEDVRKQGDLMKAAAGEFADDPCSSVKRGNMVRAARALLSAVTRLLILADMADVYKLLVQLKVVEDGILKLRNAGNEQDLGIQYKALKPEVDKLNIMAAKRQQELKDVGHRDQMAAARGILQKNVPILYTASQACLQHPDVAAYKANRDLIYKQLQQAVTGISNAAQATASDDASQHQGGGGGELAYALNNFDKQIIVDPLSFSEERFRPSLEERLESIISGAALMADSSCTRDDRRERIVAECNAVRQALQDLLSEYMGNAGRKERSDALNSAIDKMTKKTRDLRRQLRKAVMDHVSDSFLETNVPLLVLIEAAKNGNEKEVKEYAQVFREHANKLIEVANLACSISNNEEGVKLVRMSASQLEALCPQVINAALALAAKPQSKLAQENMDLFKEQWEKQVRVLTDAVDDITSIDDFLAVSENHILEDVNKCVIALQEKDVDGLDRTAGAIRGRAARVIHVVTSEMDNYEPGVYTEKVLEATKLLSNTVMPRFTEQVEAAVEALSSDPAQPMDENEFIDASRLVYDGIRDIRKAVLMIRTPEELDDSDFETEDFDVRSRTSVQTEDDQLIAGQSARAIMAQLPQEQKAKIAEQVASFQEEKSKLDAEVSKWDDSGNDIIVLAKQMCMIMMEMTDFTRGKGPLKNTSDVISAAKKIAEAGSRMDKLGRTIADHCPDSACKQDLLAYLQRIALYCHQLNICSKVKAEVQNLGGELVVSGVDSAMSLIQAAKNLMNAVVQTVKASYVASTKYQKSQGMASLNLPAVSWKMKAPEKKPLVKREKQDETQTKIKRASQKKHVNPVQALSEFKAMDSI
modifications: full-length
B3: P18859 (protein, UniProt P18859 1-108, looked up)
chain: MILQRLFRFSSVIRSAVSVHLRRNIGVTAVAFNKELDPIQKLFVDKIREYKSKRQTSGGPVDASSEYQQELERELFKLKQMFGNADMNTFPTFKFEDPKFEVIEKPQA
modifications: full-length
B4: Q15293 (protein, UniProt Q15293 1-331, looked up)
chain: MARGGRGRRLGLALGLLLALVLAPRVLRAKPTVRKERVVRPDSELGERPPEDNQSFQYDHEAFLGKEDSKTFDQLTPDESKERLGKIVDRIDNDGDGFVTTEELKTWIKRVQKRYIFDNVAKVWKDYDRDKDDKISWEEYKQATYGYYLGNPAEFHDSSDHHTFKKMLPRDERRFKAADLNGDLTATREEFTAFLHPEEFEHMKEIVVLETLEDIDKNGDGFVDQDEYIADMFSHEENGPEPDWVLSEREQFNEFRDLNKDGKLDKDEIRHWILPQDYDHAQAEARHLVYESDKNKDEKLTKEEILENWNMFVGSQATNYGEDLTKNHDEL
modifications: full-length
B5: P54920 (protein, UniProt P54920 1-295, looked up)
chain: MDNSGKEAEAMALLAEAERKVKNSQSFFSGLFGGSSKIEEACEIYARAANMFKMAKNWSAAGNAFCQAAQLHLQLQSKHDAATCFVDAGNAFKKADPQEAINCLMRAIEIYTDMGRFTIAAKHHISIAEIYETELVDIEKAIAHYEQSADYYKGEESNSSANKCLLKVAGYAALLEQYQKAIDIYEQVGTNAMDSPLLKYSAKDYFFKAALCHFCIDMLNAKLAVQKYEELFPAFSDSRECKLMKKLLEAHEEQNVDSYTESVKEYDSISRLDQWLTTMLLRIKKTIQGDEEDLR
modifications: full-length
B6: P62834 (protein, UniProt P62834 1-184, looked up)
chain: MREYKLVVLGSGGVGKSALTVQFVQGIFVEKYDPTIEDSYRKQVEVDCQQCMLEILDTAGTEQFTAMRDLYMKNGQGFALVYSITAQSTFNDLQDLREQILRVKDTEDVPMILVGNKCDLEDERVVGKEQGQNLARQWCNCAFLESSAKSKINVNEIFYDLVRQINRKTPVEKKKPKKKSCLLL
modifications: full-length
B7: Q9Y3B3 (protein, UniProt Q9Y3B3 1-224, looked up)
chain: MPRPGSAQRWAAVAGRWGCRLLALLLLVPGPGGASEITFELPDNAKQCFYEDIAQGTKCTLEFQVITGGHYDVDCRLEDPDGKVLYKEMKKQYDSFTFTASKNGTYKFCFSNEFSTFTHKTVYFDFQVGEDPPLFPSENRVSALTQMESACVSIHEALKSVIDYQTHFRLREAQGRSRAEDLNTRVAYWSVGEALILLVVSIGQVFLLKSFFSDKRTTTTRVGS
modifications: full-length
B8: Q01518 (protein, UniProt Q01518 1-475, looked up)
chain: MADMQNLVERLERAVGRLEAVSHTSDMHRGYADSPSKAGAAPYVQAFDSLLAGPVAEYLKISKEIGGDVQKHAEMVHTGLKLERALLVTASQCQQPAENKLSDLLAPISEQIKEVITFREKNRGSKLFNHLSAVSESIQALGWVAMAPKPGPYVKEMNDAAMFYTNRVLKEYKDVDKKHVDWVKAYLSIWTELQAYIKEFHTTGLAWSKTGPVAKELSGLPSGPSAGSCPPPPPPCPPPPPVSTISCSYESASRSSLFAQINQGESITHALKHVSDDMKTHKNPALKAQSGPVRSGPKPFSAPKPQTSPSPKRATKKEPAVLELEGKKWRVENQENVSNLVIEDTELKQVAYIYKCVNTTLQIKGKINSITVDNCKKLGLVFDDVVGIVEIINSKDVKVQVMGKVPTISINKTDGCHAYLSKNSLDCEIVSAKSSEMNVLIPTEGGDFNEFPVPEQFKTLWNGQKLVTTVTEIAG
modifications: full-length
B9: P52272 (protein, UniProt P52272 1-730, looked up)
chain: MAAGVEAAAEVAATEIKMEEESGAPGVPSGNGAPGPKGEGERPAQNEKRKEKNIKRGGNRFEPYANPTKRYRAFITNIPFDVKWQSLKDLVKEKVGEVTYVELLMDAEGKSRGCAVVEFKMEESMKKAAEVLNKHSLSGRPLKVKEDPDGEHARRAMQKVMATTGGMGMGPGGPGMITIPPSILNNPNIPNEIIHALQAGRLGSTVFVANLDYKVGWKKLKEVFSMAGVVVRADILEDKDGKSRGIGTVTFEQSIEAVQAISMFNGQLLFDRPMHVKMDERALPKGDFFPPERPQQLPHGLGGIGMGLGPGGQPIDANHLNKGIGMGNIGPAGMGMEGIGFGINKMGGMEGPFGGGMENMGRFGSGMNMGRINEILSNALKRGEIIAKQGGGGGGGSVPGIERMGPGIDRLGGAGMERMGAGLGHGMDRVGSEIERMGLVMDRMGSVERMGSGIERMGPLGLDHMASSIERMGQTMERIGSGVERMGAGMGFGLERMAAPIDRVGQTIERMGSGVERMGPAIERMGLSMERMVPAGMGAGLERMGPVMDRMATGLERMGANNLERMGLERMGANSLERMGLERMGANSLERMGPAMGPALGAGIERMGLAMGGGGGASFDRAIEMERGNFGGSFAGSFGGAGGHAPGVARKACQIFVRNLPFDFTWKMLKDKFNECGHVLYADIKMENGKSKGCGVVKFESPEVAERACRMMNGMKLSGREIDVRIDRNA
modifications: full-length

assay: Proteomics analysis (trypsin digest, LC-MS/MS) of hMSC ghosts and derived CDLs, conditioned or unconditioned by PC3 medium; set-up: species or system human; conditions: CDLs derived from conditioned hMSCs versus conditioned ghosts; LC-MS/MS peak area per protein

| Molecule | Ratio of expression Cond. CDLs/Cond. Ghosts |
| --- | --- |
| B1 | 7% |
| B2 | 7% |
| B3 | 7% |
| B4 | 6% |
| B5 | 6% |
| B6 | 6% |
| B7 | 6% |
| B8 | 6% |
| B9 | 2% |

same assay, conditions: hMSC ghosts conditioned by PC3 medium versus unconditioned ghosts; LC-MS/MS peak area per protein

| Molecule | Ratio of expression Cond Ghosts/Ghosts |
| --- | --- |
| B1 | 100% |
| B2 | 100% |
| B3 | 100% |
| B4 | 100% |
| B5 | 100% |
| B6 | 100% |
| B7 | 100% |
| B8 | 100% |
| B9 | 262% |
